≈ marks a conversion by molar mass, not a printed value.
System: MDA-MB-231 cells
Experiment: MTT cytotoxicity assay, 72 hr
Type: cell-based
Details: MTT viability assay
Description: In vitro cytotoxicity study. The cytotoxicity of blank Cr-PVA-LA NPs was evaluated on MDA-MB-231 and MCF-7 cells. The in vitro anti-tumor effects of DOX loaded Cr-PVA-LA NPs were evaluated on MDA-MB-231 cell in comparison with the commercial DOX. MDA-MB-231 and MCF-7 cells were seeded in 96-well plates a day prior to the treatment at a density of 3000 cell/well. After 72 hr incubation with different concentrations of blank Cr-PVA-LA or DOX loaded Cr-PVA-LA NPs in a humidified 37° C., MTT was added to each well and further incubated for 2 hr. The absorbance at 486 nm was detected using a microplate ELISA reader(SpectraMax M2, Molecular Devices, USA). Values were reported as the means for each triplicate samples.

Compound: COc1cccc2c1C(=O)c1c(O)c3c(c(O)c1C2=O)C[C@@](O)(C(=O)CO)C[C@@H]3O[C@H]1C[C@H](N)[C@H](O)[C@H](C)O1 [DOX, doxorubicin]
- IC50: 0.3456 µg/mL (≈ 0.636 µM)
